Measured values published in paper PMC9663158.
These are yes or no findings as the source states them, for the method shown. Binding seen in cells or lysates may run through a third protein. Some entries that bind do so weakly or less than the wild type.

By UniProt entry, the sequences of proteins in these tests, tags left out.
UniProt Q15561: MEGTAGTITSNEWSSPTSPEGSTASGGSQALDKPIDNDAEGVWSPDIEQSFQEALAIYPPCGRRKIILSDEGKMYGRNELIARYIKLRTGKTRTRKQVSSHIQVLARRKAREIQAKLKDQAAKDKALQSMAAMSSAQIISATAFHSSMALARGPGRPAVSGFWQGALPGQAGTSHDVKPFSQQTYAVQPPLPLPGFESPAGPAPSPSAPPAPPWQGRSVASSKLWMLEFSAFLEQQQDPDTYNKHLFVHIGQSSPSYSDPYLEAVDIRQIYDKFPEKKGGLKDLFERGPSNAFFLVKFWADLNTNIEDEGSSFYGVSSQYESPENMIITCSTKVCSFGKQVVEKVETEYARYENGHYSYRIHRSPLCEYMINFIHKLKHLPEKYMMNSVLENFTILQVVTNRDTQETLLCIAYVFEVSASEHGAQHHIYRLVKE

Target: FLAG-tagged TEAD4 (human) (UniProt Q15561)
Assay: co-IP; 293T cells cotransfected with exogenous RAD21 and FLAG-tagged TEAD4; IP lysis buffer 50 mM Tris-HCl, 150 mM NaCl, 1.0% NP-40; protein G Dynabeads overnight at 4°C; immunoblotting

B1: exogenous RAD21 (protein, UniProt O60216 1-631)
chain: MFYAHFVLSKRGPLAKIWLAAHWDKKLTKAHVFECNLESSVESIISPKVKMALRTSGHLLLGVVRIYHRKAKYLLADCNEAFIKIKMAFRPGVVDLPEENREAAYNAITLPEEFHDFDQPLPDLDDIDVAQQFSLNQSRVEEITMREEVGNISILQENDFGDFGMDDREIMREGSAFEDDDMLVSTTTSNLLLESEQSTSNLNEKINHLEYEDQYKDDNFGEGNDGGILDDKLISNNDGGIFDDPPALSEAGVMLPEQPAHDDMDEDDNVSMGGPDSPDSVDPVEPMPTMTDQTTLVPNEEEAFALEPIDITVKETKAKRKRKLIVDSVKELDSKTIRAQLSDYSDIVTTLDLAPPTKKLMMWKETGGVEKLFSLPAQPLWNNRLLKLFTRCLTPLVPEDLRKRRKGGEADNLDEFLKEFENPEVPREDQQQQHQQRDVIDEPIIEEPSRLQESVMEASRTNIDESAMPPPPPQGVKRKAGQIDPEPVMPPQQVEQMEIPPVELPPEEPPNICQLIPELELLPEKEKEKEKEKEDDEEEEDEDASGGDQDQEERRWNKRTQQMLHGLQRALAKTGAESISLLELCRNTNRKQAAAKFYSFLVLKKQQAIELTQEEPYSDIIATPGPRFHII
For B1, the binding was “binds”.
